Experimental data reported in US20020102606A1.
No constants are given. Whether binding was seen depends on the method and setting. Some binding calls cover weakened binding; strength is not graded here.

The chains behind the UniProt entries cited, without tags or fusion partners. Where a name states a change or a piece, a line headed by the entry shows the natural chain unless it says otherwise. A line that says so, or that is headed by a name, gives the form on record, which may keep a tag or linker. Residues count along the entry.
PRAK NUC 201-1104 K51M, T182D (bait) (Q8IW41, form named): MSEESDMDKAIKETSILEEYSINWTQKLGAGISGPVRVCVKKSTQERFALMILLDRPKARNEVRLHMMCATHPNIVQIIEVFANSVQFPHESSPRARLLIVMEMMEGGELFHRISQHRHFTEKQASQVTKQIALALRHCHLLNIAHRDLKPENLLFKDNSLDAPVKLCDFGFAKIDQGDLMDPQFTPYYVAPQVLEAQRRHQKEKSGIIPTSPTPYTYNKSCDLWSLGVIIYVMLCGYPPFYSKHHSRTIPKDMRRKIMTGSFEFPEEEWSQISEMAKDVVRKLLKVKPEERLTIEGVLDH
UniProt Q96AA8: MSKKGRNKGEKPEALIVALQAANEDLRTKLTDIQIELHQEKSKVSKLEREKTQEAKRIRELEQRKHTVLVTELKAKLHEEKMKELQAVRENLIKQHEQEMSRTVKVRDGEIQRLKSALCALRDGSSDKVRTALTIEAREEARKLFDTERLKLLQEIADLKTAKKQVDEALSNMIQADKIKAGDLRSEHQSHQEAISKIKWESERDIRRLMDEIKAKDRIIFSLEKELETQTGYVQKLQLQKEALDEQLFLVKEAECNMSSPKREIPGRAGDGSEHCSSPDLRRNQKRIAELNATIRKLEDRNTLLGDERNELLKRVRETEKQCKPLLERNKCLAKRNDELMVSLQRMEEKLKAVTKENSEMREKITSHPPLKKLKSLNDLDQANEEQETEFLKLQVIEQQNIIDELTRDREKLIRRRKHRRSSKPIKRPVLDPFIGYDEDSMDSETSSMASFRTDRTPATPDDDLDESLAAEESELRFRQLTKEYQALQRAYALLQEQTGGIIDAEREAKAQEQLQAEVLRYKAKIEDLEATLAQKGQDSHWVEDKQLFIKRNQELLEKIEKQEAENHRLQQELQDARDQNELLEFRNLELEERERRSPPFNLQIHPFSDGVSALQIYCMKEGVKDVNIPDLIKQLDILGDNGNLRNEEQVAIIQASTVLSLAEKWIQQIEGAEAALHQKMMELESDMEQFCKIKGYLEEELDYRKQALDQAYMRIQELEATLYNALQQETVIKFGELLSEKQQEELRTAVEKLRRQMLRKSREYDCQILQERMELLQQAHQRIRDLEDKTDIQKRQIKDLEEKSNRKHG
UniProt O60784, residues 236-492: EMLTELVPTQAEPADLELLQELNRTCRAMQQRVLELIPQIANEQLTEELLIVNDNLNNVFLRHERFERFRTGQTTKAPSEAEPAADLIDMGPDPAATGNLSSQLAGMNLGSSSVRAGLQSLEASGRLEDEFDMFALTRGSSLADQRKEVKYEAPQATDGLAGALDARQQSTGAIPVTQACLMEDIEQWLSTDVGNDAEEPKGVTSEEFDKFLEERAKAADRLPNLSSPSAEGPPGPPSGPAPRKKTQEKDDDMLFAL
UniProt Q14203, residues 771-999: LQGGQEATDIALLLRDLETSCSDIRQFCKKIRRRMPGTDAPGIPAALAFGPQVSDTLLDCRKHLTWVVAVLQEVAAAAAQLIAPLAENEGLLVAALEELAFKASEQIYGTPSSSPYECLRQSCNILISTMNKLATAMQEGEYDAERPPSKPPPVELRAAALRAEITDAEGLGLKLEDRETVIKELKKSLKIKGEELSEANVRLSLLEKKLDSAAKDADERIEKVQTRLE
UniProt O14964: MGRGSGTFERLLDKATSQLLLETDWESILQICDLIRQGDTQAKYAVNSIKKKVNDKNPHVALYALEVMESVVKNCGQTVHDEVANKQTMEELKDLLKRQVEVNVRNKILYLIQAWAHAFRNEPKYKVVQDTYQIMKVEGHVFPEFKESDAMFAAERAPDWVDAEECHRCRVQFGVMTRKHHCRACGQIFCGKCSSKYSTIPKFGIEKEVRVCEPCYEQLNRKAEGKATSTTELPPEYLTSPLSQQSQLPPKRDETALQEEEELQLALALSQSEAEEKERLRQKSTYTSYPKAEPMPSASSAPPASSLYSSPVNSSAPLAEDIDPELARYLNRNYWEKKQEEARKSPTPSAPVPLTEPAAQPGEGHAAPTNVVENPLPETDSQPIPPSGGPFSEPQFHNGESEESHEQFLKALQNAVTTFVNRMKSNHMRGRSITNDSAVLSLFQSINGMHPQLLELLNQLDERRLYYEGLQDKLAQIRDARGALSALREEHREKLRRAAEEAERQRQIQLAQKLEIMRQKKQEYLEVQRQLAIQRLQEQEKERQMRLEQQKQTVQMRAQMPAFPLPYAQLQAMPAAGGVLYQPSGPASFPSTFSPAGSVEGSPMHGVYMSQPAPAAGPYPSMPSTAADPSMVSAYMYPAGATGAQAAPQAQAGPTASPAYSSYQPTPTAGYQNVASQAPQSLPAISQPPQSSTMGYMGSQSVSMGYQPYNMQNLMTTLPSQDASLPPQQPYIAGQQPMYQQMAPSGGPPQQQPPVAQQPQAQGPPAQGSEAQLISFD
UniProt P61244: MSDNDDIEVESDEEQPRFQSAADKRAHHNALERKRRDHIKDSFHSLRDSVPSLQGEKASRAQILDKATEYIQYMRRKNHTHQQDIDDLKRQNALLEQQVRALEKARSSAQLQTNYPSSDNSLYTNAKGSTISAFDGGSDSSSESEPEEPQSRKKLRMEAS
UniProt P62258: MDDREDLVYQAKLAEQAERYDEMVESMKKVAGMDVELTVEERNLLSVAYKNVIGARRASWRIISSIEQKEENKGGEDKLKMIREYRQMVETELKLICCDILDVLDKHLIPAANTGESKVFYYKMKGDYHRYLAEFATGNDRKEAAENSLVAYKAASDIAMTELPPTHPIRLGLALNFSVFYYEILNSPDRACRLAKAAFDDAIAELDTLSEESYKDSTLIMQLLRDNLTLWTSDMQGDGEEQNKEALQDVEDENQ
UniProt P04792, residues 73-205: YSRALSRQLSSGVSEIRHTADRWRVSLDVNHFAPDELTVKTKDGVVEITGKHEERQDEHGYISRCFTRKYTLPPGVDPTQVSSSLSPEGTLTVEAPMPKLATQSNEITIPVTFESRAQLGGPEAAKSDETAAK
UniProt Q9Y5Q3, residues 236-323: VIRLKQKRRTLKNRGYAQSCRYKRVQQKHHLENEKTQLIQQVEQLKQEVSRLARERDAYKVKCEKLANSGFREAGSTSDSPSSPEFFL

Legend:
[1] = biological target: MAPKAP-K3 NUC 433-1003 (bait) (UniProt Q16644); assay: yeast two-hybrid
[2] = biological target: MAPKAP-K3 NUC 433-1003 (bait) (UniProt Q16644); assay: yeast two-hybrid; prey clone found with the bait of the row
[3] = biological target: PRAK NUC 201-1104 K51M, T182D (bait) (UniProt Q8IW41); assay: yeast two-hybrid
[4] = biological target: PRAK NUC 201-1104 K51M, T182D (bait) (UniProt Q8IW41); assay: yeast two-hybrid; prey clone found with the bait of the row
[5] = biological target: KIAA0555 (protein of interest in a two-hybrid search, construct not stated) (UniProt Q96AA8); assay: yeast two-hybrid
NMI protein = biological target: T1, NMI protein (UniProt Q13287); assay: yeast two-hybrid
T1 sequence (looked up): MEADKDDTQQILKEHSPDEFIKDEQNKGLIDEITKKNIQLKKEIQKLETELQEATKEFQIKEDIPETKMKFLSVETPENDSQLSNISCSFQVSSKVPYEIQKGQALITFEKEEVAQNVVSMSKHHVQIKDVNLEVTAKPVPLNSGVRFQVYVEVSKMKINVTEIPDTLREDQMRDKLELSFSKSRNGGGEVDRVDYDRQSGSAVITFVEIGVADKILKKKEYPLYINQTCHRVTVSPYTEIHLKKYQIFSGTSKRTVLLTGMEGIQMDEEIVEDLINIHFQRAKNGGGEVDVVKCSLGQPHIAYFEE

[6] = biological target: T2, MAPKAP-K3 NUC 742-1003 (bait) (UniProt Q16644); assay: yeast two-hybrid
T2 sequence (looked up): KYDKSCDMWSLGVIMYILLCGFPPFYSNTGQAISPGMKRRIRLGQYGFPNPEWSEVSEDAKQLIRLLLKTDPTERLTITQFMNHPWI

[7] = biological target: T2, MAPKAP-K3 NUC 742-1003 (bait); assay: yeast two-hybrid; prey clone found with the bait of the row

Row | binding [1] | binding [2] | Substance | other results
1 | binds | binds | TOM1 NUC 751-1522 (prey) (from UniProt O60784 236-492) | –
2 | – | – | Dynactin amino acids 771-999 (prey) (from UniProt Q14203 771-999) | binding [3]: binds; binding [4]: binds
3 | binds | binds | Hepatocyte Growth Factor-Regulated Tyrosine Kinase (HRS) NUC 1521-2073 (prey) (from UniProt O14964 482-665) | –
4 | – | – | ABP620 NUC 11355-12486 (prey) (from UniProt Q9UPN3 3719-4095) | binding [3]: binds; binding [4]: binds
5 | binds | binds | MAX amino acids 45-149 (prey) (from UniProt P61244 45-149) | –
6 | – | – | 14-3-3 epsilon signal transduction protein (from UniProt P62258 1-255) | binding [5]: binds
7 | – | – | HRS (construct not stated) (from UniProt O14964 1-777) | binding (NMI protein): binds
8 | – | – | HSP27 amino acids 73-206 (prey) (from UniProt P04792 73-205) | binding [6]: binds; binding [7]: binds
9 | binds | binds | KRML NUC 781-1045 (prey) (from UniProt Q9Y5Q3 236-323) | –
